Drawing on PMC4748739, this text covers binding for one substance.

Sequences of proteins named here, by UniProt entry; tags and fusion partners are left off. Residues count along the entry.
UniProt Q9QUK6, residues 26-835: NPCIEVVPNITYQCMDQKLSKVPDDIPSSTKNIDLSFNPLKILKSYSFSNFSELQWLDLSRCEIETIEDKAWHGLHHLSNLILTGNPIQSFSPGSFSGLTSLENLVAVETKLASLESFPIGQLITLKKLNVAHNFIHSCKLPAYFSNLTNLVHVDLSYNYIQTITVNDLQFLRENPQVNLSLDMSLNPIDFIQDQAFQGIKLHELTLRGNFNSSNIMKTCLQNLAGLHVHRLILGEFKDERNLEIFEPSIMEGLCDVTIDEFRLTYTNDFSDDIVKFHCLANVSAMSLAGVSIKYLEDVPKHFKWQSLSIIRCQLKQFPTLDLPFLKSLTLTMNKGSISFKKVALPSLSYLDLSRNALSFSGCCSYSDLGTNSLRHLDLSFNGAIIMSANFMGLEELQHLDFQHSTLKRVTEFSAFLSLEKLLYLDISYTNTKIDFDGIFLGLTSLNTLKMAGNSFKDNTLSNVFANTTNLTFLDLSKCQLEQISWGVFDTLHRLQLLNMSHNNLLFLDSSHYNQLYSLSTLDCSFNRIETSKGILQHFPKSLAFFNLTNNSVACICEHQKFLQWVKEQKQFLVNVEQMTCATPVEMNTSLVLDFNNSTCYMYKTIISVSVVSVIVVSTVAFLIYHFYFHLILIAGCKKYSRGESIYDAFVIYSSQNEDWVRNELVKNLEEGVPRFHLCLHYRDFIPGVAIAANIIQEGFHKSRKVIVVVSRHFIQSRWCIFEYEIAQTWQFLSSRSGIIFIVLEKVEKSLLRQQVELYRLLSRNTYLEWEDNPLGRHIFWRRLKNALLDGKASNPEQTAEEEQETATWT

Results are given in words; binding and its absence hold for the method and conditions named. Binding seen in cells or lysates may run through a third protein. Some results given as binding are weak or reduced against the parent protein; the word gives no strength.

In this experiment the target is T1, CD14 (mouse (endogenous in RAW264.7)) (UniProt P10810).
T1 sequence: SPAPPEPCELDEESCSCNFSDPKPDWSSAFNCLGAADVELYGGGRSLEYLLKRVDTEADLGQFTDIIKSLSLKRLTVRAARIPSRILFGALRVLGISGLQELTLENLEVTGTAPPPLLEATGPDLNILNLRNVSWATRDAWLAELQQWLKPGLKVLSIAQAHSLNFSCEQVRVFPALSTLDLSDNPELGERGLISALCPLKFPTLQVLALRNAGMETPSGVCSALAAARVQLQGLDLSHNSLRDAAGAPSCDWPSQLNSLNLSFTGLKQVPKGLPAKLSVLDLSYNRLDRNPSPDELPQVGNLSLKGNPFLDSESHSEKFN
Nature of the experiment: co-IP; RAW264.7 lysates (50 mM Hepes, 100 mM NaCl, 2 mM EDTA, 10% glycerol, 1% Igepal CA-630), IP with anti-mouse CD14 antibody at 4°C, Protein A/G Plus-Agarose, Western blot for TLR4; cells unstimulated or stimulated with LPS (1 µg/mL) or viable P. aeruginosa (MOI 1) for 24 h, with or without PUFA (LNA, EPA, DHA, LA, AA; 15 µM, 72 h). A general note: In western blotting, separated proteins are transferred to a membrane and probed.

Turning to “Toll-like receptor 4 (from UniProt Q9QUK6 26-835)”, the binding entry was “binds”.
